Screen size: about 320,000 compounds; about 2,100 (0.66%) were called active. Inconclusive means that the source gave no clear call. Such entries were picked first, then a sample of the others. The call rests on the fitted dose curve; in most records, active means well fitted inhibition curve with a large enough effect in the signal ratio, with a control signal flat (not every such curve was filed as active); inconclusive means small, poorly fitted or top-dose-only effect, or effect the other way, or a change in a side signal; inactive means flat fitted curve, though single readings scatter; the % refers to the signal ratio. Where the call is inconclusive, the potency comes from a doubtful curve fit.
Experiment: qHTS Assay for Lipid Storage Modulators in Drosophila S3 Cells
Settings: BODIPY lipid droplet fluorescence, 18-24 h, cells fed with added oleic acid; lipid storage change, negative = inhibition: at 46.1 µM (top of the series) unless noted
Method in brief: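 Drosophila S3 cells loaded with oleic acid (400 uM, as added) and compounds at several concentrations; lipid droplets imaged by 488-nm laser-scanning cytometry, 500–530 nm intensity and object ratio to cell channel. Percent activity normalized to 20 uM Triacsin C.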
On the % scale 0 is the no-effect control and ±100 the full control effect; potency means the concentration at half of the fitted maximal effect.

Q: With Cc1ccccc1-n1c(SCC(=O)N2CCCC2)nnc1-c1ccccn1 as the compound, how does the lipid storage change, negative = inhibition read?
A: The lipid storage change, negative = inhibition was inconclusive: 22.3%.

Q: For Cc1nnc(NC(=O)CSc2nnc(-c3ccco3)n2C(C)C)s1, which Potency is on record?
A: The Potency was inconclusive: 7.31 µM [falling, partial curve].

Q: Which lipid storage change, negative = inhibition does the source give for CC1CCCC(C)N1C(=O)/C=C/c1ccc(S(=O)(=O)N2CCOCC2)cc1 (stereo unspecified) here?
A: The lipid storage change, negative = inhibition was “inconclusive”.

Q: With COc1ccc(/C=N\NC(=O)c2ccc(-c3ccccc3)cc2)c(OC)c1OC as the compound, how does the Potency read?
A: The Potency was inconclusive: 29.1 µM [falling, single point].

Q: Which Potency does the source give for O=C(NOCc1ccccc1)c1ccc([N+](=O)[O-])cc1 here?
A: The Potency was inconclusive: 4.11 µM [activator, partial curve].

Q: With O=C(OCC(=O)N1CCOCC1)C(c1ccccc1)c1ccccc1 as the compound, how does the Potency read?
A: Its Potency is inconclusive: 29.1 µM [cytotoxic, single point].

Q: Which lipid storage change, negative = inhibition does the source give for O=C(c1cc(-c2ccccc2)nn1-c1ccccc1)N1CCN(S(=O)(=O)c2c(F)cccc2F)CC1 here?
A: The lipid storage change, negative = inhibition was inconclusive: 10.9%.

Q: With O=c1c2cc(NC(=S)NCc3cccnc3)ccc2nc2n1CCCCC2 as the compound, how does the lipid storage change, negative = inhibition read?
A: Its lipid storage change, negative = inhibition is inconclusive: 1.72%.

Q: For CCS(=O)(=O)N1CCCC(C(=O)NC2CCCCC2)C1 (stereo unspecified), which lipid storage change, negative = inhibition is on record?
A: The lipid storage change, negative = inhibition was inconclusive: 10%.

Q: For CCCc1ccc(S(=O)(=O)N/N=C(/C)c2ccc3c(c2)OCO3)cc1, which Potency is on record?
A: The Potency was inconclusive: 29.1 µM [activator, single point].

Q: For S=C(NC12CC3CC(CC(C3)C1)C2)N1CCOCC1, which lipid storage change, negative = inhibition is on record?
A: Its lipid storage change, negative = inhibition is inconclusive: 35%.

Q: Which Potency does the source give for CC(NC(=O)CCl)c1ccc(Cl)c(Cl)c1 (stereo unspecified) here?
A: Its Potency is active: 23.1 µM.

Q: With Cc1cc(Nc2ccccc2)nc(NCc2ccccc2)n1 as the compound, how does the Potency read?
A: Its Potency is active: 8.2 µM.

Q: With COCC(=O)Nc1cc(Cl)c(OC)cc1OC as the compound, how does the Potency read?
A: The Potency was inconclusive: 0.58 µM [activator, partial curve, poor fit].

Q: With CCOC(=O)CN(C(=O)CSc1nnc(-c2ccc(OC)c(OC)c2)o1)c1ccccc1 as the compound, how does the lipid storage change, negative = inhibition read?
A: Its lipid storage change, negative = inhibition is inconclusive: 24.6%.

Q: For COc1ccccc1CC(=O)NNC(=O)CN(C)S(=O)(=O)c1ccc(Cl)cc1, which lipid storage change, negative = inhibition is on record?
A: The lipid storage change, negative = inhibition was “inconclusive”.

Q: For COc1ccc(-n2nc(C(=O)NCC(=O)N3CCCC3)c3ccccc3c2=O)cc1Cl, which Potency is on record?
A: Its Potency is inconclusive: 20.6 µM [activator, single point].

Q: Which Potency does the source give for O=C(c1ccccc1Cl)N1CCN(Cc2ccc3c(c2)OCO3)CC1 here?
A: Its Potency is inconclusive: 18.4 µM [activator, partial curve].

Q: With C/C(=N\Nc1ccc([N+](=O)[O-])cc1[N+](=O)[O-])c1ccc(-n2nncc2C(C)(C)C)cc1 as the compound, how does the lipid storage change, negative = inhibition read?
A: Its lipid storage change, negative = inhibition is inconclusive: -9.59%.

Q: Which lipid storage change, negative = inhibition does the source give for CCCn1c(NC(=O)CCS(=O)(=O)c2ccc(C)cc2)nc2ccccc21 here?
A: Its lipid storage change, negative = inhibition is inconclusive: 20.5%.

Q: For O=C(c1cccc(S(=O)(=O)N2CCc3ccccc32)c1)N1CCN(c2ccccc2)CC1, which lipid storage change, negative = inhibition is on record?
A: The lipid storage change, negative = inhibition was “inconclusive”.

From PubChem BioAssay AID2685 (National Center for Advancing Translational Sciences (NCATS), 2010)
